In the assay the target is PTEN-L:EGFP (human) (UniProt P60484). The assay is described as follows: proximity ligation; Duolink PLA with anti-GAB2 and anti-PTEN-L antibodies in fixed, permeabilised primary neurons at DIV 9 treated with PBS for 60 min; proximities below 40 nm.

Chains of the proteins cited; added tags and fusions are not shown.
UniProt Q9Z1S8: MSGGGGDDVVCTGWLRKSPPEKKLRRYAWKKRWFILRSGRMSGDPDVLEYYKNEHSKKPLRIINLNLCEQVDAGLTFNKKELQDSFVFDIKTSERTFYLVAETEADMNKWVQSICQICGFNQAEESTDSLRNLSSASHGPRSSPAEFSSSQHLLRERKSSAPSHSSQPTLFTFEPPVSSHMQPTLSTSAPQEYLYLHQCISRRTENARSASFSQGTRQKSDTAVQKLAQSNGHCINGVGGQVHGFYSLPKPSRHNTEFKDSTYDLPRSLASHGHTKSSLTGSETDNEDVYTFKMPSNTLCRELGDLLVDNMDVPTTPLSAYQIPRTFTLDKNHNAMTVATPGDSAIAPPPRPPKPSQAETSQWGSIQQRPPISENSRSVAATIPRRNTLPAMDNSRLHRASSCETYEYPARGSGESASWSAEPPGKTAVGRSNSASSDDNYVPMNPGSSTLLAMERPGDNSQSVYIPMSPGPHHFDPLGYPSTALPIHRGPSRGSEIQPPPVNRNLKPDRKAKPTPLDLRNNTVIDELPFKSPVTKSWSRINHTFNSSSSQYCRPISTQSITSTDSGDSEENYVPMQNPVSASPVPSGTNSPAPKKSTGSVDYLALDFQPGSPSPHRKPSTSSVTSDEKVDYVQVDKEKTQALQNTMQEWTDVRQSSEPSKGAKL

These are yes or no findings as the source states them, for the method shown. In cells and extracts the contact can be indirect. Some entries that bind do so weakly or less than the wild type.

As for “GRB2-associated-binding protein 2 (from UniProt Q9Z1S8 1-665)”, the binding entry was “binds”.

For the origin of these results see paper PMC6395706.
